Results taken from the supplement of paper PMC12282887.
± gives the standard deviation of the averaged measurements. Values are raw readings; no control value is given beside them.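 The top concentration was set near the MIC for antimicrobials, at 500 µM for most other compounds, and up to 1 mM for known inducer-like compounds. Deletion strains started from a tenfold smaller inoculum, and wells growing below 10% of the overall median were treated as non-growing.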

Test system: Escherichia coli BW25113
Test: growth (OD600 area under curve, 8 h) (OD600 x h); higher = more growth
Procedure: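 E. coli BW25113 reporter strains (wild type, ΔmarA, ΔsoxS, Δrob, each carrying one of 8 lux reporter plasmids) were grown in 40 µl LB in 384-well plates at 37°C, 800 rpm, with each compound at 4 two-fold concentrations, in biological duplicates. Growth is the baseline-corrected OD600 area under the curve over 8 h (0-8 h WT, 1-9 h deletion strains).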

## CCCCCCCCCCCCC[N+](C)(C)Cc1ccccc1 [Benzalkonium]
1.9 µg/ml, genetic background: wild type, reporter plasmid: EVC
  growth: 2.13 ± 0.13
1.9 µg/ml, genetic background: wild type, reporter plasmid: acrABp
  growth: 2.85 ± 0.22
1.9 µg/ml, genetic background: wild type, reporter plasmid: marRABp
  growth: 3.08 ± 0.11
1.9 µg/ml, genetic background: wild type, reporter plasmid: micFp
  growth: 2.85 ± 0.22
1.9 µg/ml, genetic background: wild type, reporter plasmid: ompFp
  growth: 2.75 ± 0.14
1.9 µg/ml, genetic background: wild type, reporter plasmid: robp
  growth: 2.92 ± 0.18
1.9 µg/ml, genetic background: wild type, reporter plasmid: soxSp
  growth: 2.55 ± 0.12
1.9 µg/ml, genetic background: wild type, reporter plasmid: tolCp
  growth: 2.848 ± 0.0095
1.9 µg/ml, genetic background: ΔmarA, reporter plasmid: EVC
  growth: 2.71 ± 0.036
1.9 µg/ml, genetic background: ΔmarA, reporter plasmid: acrABp
  growth: 3.71 ± 0.44
1.9 µg/ml, genetic background: ΔmarA, reporter plasmid: marRABp
  growth: 3.08 ± 0.23
1.9 µg/ml, genetic background: ΔmarA, reporter plasmid: micFp
  growth: 2.77 ± 0.14
1.9 µg/ml, genetic background: ΔmarA, reporter plasmid: ompFp
  growth: 3.21 ± 0.49
1.9 µg/ml, genetic background: ΔmarA, reporter plasmid: robp
  growth: 3.19 ± 0.55
1.9 µg/ml, genetic background: ΔmarA, reporter plasmid: soxSp
  growth: 2.23 ± 0.2
1.9 µg/ml, genetic background: ΔmarA, reporter plasmid: tolCp
  growth: 2.66 ± 0.28
1.9 µg/ml, genetic background: Δrob, reporter plasmid: EVC
  growth: 1.92 ± 0.49
1.9 µg/ml, genetic background: Δrob, reporter plasmid: acrABp
  growth: 3.097 ± 0.0075
1.9 µg/ml, genetic background: Δrob, reporter plasmid: marRABp
  growth: 3.27 ± 0.28
1.9 µg/ml, genetic background: Δrob, reporter plasmid: micFp
  growth: 2.44 ± 0.37
1.9 µg/ml, genetic background: Δrob, reporter plasmid: ompFp
  growth: 2.4 ± 0.63
1.9 µg/ml, genetic background: Δrob, reporter plasmid: robp
  growth: 2.47 ± 0.13
1.9 µg/ml, genetic background: Δrob, reporter plasmid: soxSp
  growth: 2.44 ± 0.56
1.9 µg/ml, genetic background: Δrob, reporter plasmid: tolCp
  growth: 2.31 ± 0.18
1.9 µg/ml, genetic background: ΔsoxS, reporter plasmid: EVC
  growth: 2.34 ± 0.19
1.9 µg/ml, genetic background: ΔsoxS, reporter plasmid: acrABp
  growth: 2.81 ± 1.2
1.9 µg/ml, genetic background: ΔsoxS, reporter plasmid: marRABp
  growth: 3.22 ± 0.6
1.9 µg/ml, genetic background: ΔsoxS, reporter plasmid: micFp
  growth: 2.04 ± 0.13
1.9 µg/ml, genetic background: ΔsoxS, reporter plasmid: ompFp
  growth: 2.62 ± 0.51
1.9 µg/ml, genetic background: ΔsoxS, reporter plasmid: robp
  growth: 2.91 ± 0.12
1.9 µg/ml, genetic background: ΔsoxS, reporter plasmid: soxSp
  growth: 2.58 ± 0.91
1.9 µg/ml, genetic background: ΔsoxS, reporter plasmid: tolCp
  growth: 2.24 ± 0.27
3.7 µg/ml, genetic background: wild type, reporter plasmid: EVC
  growth: 2.13 ± 0.074
3.7 µg/ml, genetic background: wild type, reporter plasmid: acrABp
  growth: 2.86 ± 0.31
3.7 µg/ml, genetic background: wild type, reporter plasmid: marRABp
  growth: 3.18 ± 0.13
3.7 µg/ml, genetic background: wild type, reporter plasmid: micFp
  growth: 2.89 ± 0.26
3.7 µg/ml, genetic background: wild type, reporter plasmid: ompFp
  growth: 2.96 ± 0.077
3.7 µg/ml, genetic background: wild type, reporter plasmid: robp
  growth: 3.176 ± 0.0052
3.7 µg/ml, genetic background: wild type, reporter plasmid: soxSp
  growth: 2.588 ± 0.003
3.7 µg/ml, genetic background: wild type, reporter plasmid: tolCp
  growth: 2.85 ± 0.17
3.7 µg/ml, genetic background: ΔmarA, reporter plasmid: EVC
  growth: 2.83 ± 0.11
3.7 µg/ml, genetic background: ΔmarA, reporter plasmid: acrABp
  growth: 4.29 ± 0.59
3.7 µg/ml, genetic background: ΔmarA, reporter plasmid: marRABp
  growth: 3.6 ± 0.29
3.7 µg/ml, genetic background: ΔmarA, reporter plasmid: micFp
  growth: 2.99 ± 0.081
3.7 µg/ml, genetic background: ΔmarA, reporter plasmid: ompFp
  growth: 3.46 ± 0.69
3.7 µg/ml, genetic background: ΔmarA, reporter plasmid: robp
  growth: 3.78 ± 0.65
3.7 µg/ml, genetic background: ΔmarA, reporter plasmid: soxSp
  growth: 2.44 ± 0.41
3.7 µg/ml, genetic background: ΔmarA, reporter plasmid: tolCp
  growth: 2.72 ± 0.32
3.7 µg/ml, genetic background: Δrob, reporter plasmid: EVC
  growth: 2.03 ± 0.5
3.7 µg/ml, genetic background: Δrob, reporter plasmid: acrABp
  growth: 3.17 ± 0.22
3.7 µg/ml, genetic background: Δrob, reporter plasmid: marRABp
  growth: 3.47 ± 0.13
3.7 µg/ml, genetic background: Δrob, reporter plasmid: micFp
  growth: 2.72 ± 0.17
3.7 µg/ml, genetic background: Δrob, reporter plasmid: ompFp
  growth: 2.48 ± 0.73
3.7 µg/ml, genetic background: Δrob, reporter plasmid: robp
  growth: 2.57 ± 0.059
3.7 µg/ml, genetic background: Δrob, reporter plasmid: soxSp
  growth: 2.59 ± 0.45
3.7 µg/ml, genetic background: Δrob, reporter plasmid: tolCp
  growth: 2.47 ± 0.34
3.7 µg/ml, genetic background: ΔsoxS, reporter plasmid: EVC
  growth: 2.36 ± 0.12
3.7 µg/ml, genetic background: ΔsoxS, reporter plasmid: acrABp
  growth: 2.93 ± 1.3
3.7 µg/ml, genetic background: ΔsoxS, reporter plasmid: marRABp
  growth: 3.34 ± 0.76
3.7 µg/ml, genetic background: ΔsoxS, reporter plasmid: micFp
  growth: 2.26 ± 0.28
3.7 µg/ml, genetic background: ΔsoxS, reporter plasmid: ompFp
  growth: 2.84 ± 0.72
3.7 µg/ml, genetic background: ΔsoxS, reporter plasmid: robp
  growth: 3.42 ± 0.099
3.7 µg/ml, genetic background: ΔsoxS, reporter plasmid: soxSp
  growth: 2.8 ± 0.85
3.7 µg/ml, genetic background: ΔsoxS, reporter plasmid: tolCp
  growth: 2.25 ± 0.13
7.4 µg/ml, genetic background: wild type, reporter plasmid: EVC
  growth: 2.57 ± 0.18
7.4 µg/ml, genetic background: wild type, reporter plasmid: acrABp
  growth: 2.86 ± 0.49
7.4 µg/ml, genetic background: wild type, reporter plasmid: marRABp
  growth: 3.16 ± 0.67
7.4 µg/ml, genetic background: wild type, reporter plasmid: micFp
  growth: 3.14 ± 0.13
7.4 µg/ml, genetic background: wild type, reporter plasmid: ompFp
  growth: 2.95 ± 0.52
7.4 µg/ml, genetic background: wild type, reporter plasmid: robp
  growth: 3.38 ± 0.19
7.4 µg/ml, genetic background: wild type, reporter plasmid: soxSp
  growth: 2.86 ± 0.033
7.4 µg/ml, genetic background: wild type, reporter plasmid: tolCp
  growth: 3.03 ± 0.041
7.4 µg/ml, genetic background: ΔmarA, reporter plasmid: EVC
  growth: 2.792 ± 0.0058
7.4 µg/ml, genetic background: ΔmarA, reporter plasmid: acrABp
  growth: 4.33 ± 0.57
7.4 µg/ml, genetic background: ΔmarA, reporter plasmid: marRABp
  growth: 4.02 ± 0.55
7.4 µg/ml, genetic background: ΔmarA, reporter plasmid: micFp
  growth: 3.36 ± 0.47
7.4 µg/ml, genetic background: ΔmarA, reporter plasmid: ompFp
  growth: 3.35 ± 0.24
7.4 µg/ml, genetic background: ΔmarA, reporter plasmid: robp
  growth: 3.74 ± 0.77
7.4 µg/ml, genetic background: ΔmarA, reporter plasmid: soxSp
  growth: 2.37 ± 0.34
7.4 µg/ml, genetic background: ΔmarA, reporter plasmid: tolCp
  growth: 2.64 ± 0.16
7.4 µg/ml, genetic background: Δrob, reporter plasmid: EVC
  growth: 2.06 ± 0.39
7.4 µg/ml, genetic background: Δrob, reporter plasmid: acrABp
  growth: 3.05 ± 0.14
7.4 µg/ml, genetic background: Δrob, reporter plasmid: marRABp
  growth: 3.53 ± 0.53
7.4 µg/ml, genetic background: Δrob, reporter plasmid: micFp
  growth: 3.03 ± 0.06
7.4 µg/ml, genetic background: Δrob, reporter plasmid: ompFp
  growth: 2.5 ± 0.085
7.4 µg/ml, genetic background: Δrob, reporter plasmid: robp
  growth: 2.76 ± 0.48
7.4 µg/ml, genetic background: Δrob, reporter plasmid: soxSp
  growth: 2.75 ± 0.4
7.4 µg/ml, genetic background: Δrob, reporter plasmid: tolCp
  growth: 2.41 ± 0.7
7.4 µg/ml, genetic background: ΔsoxS, reporter plasmid: EVC
  growth: 2.81 ± 0.15
7.4 µg/ml, genetic background: ΔsoxS, reporter plasmid: acrABp
  growth: 3 ± 1.1
7.4 µg/ml, genetic background: ΔsoxS, reporter plasmid: marRABp
  growth: 3.3 ± 0.6
7.4 µg/ml, genetic background: ΔsoxS, reporter plasmid: micFp
  growth: 2.41 ± 0.11
7.4 µg/ml, genetic background: ΔsoxS, reporter plasmid: ompFp
  growth: 2.88 ± 0.8
7.4 µg/ml, genetic background: ΔsoxS, reporter plasmid: robp
  growth: 3.532 ± 0.0096
7.4 µg/ml, genetic background: ΔsoxS, reporter plasmid: soxSp
  growth: 2.95 ± 0.39
7.4 µg/ml, genetic background: ΔsoxS, reporter plasmid: tolCp
  growth: 2.6 ± 0.4
14.9 µg/ml, genetic background: wild type, reporter plasmid: EVC
  growth: 0.86 ± 0.83
14.9 µg/ml, genetic background: wild type, reporter plasmid: acrABp
  growth: -0.242 ± 0.057
14.9 µg/ml, genetic background: wild type, reporter plasmid: marRABp
  growth: 0.0564 ± 0.0045
14.9 µg/ml, genetic background: wild type, reporter plasmid: micFp
  growth: -0.00431 ± 0.06
14.9 µg/ml, genetic background: wild type, reporter plasmid: ompFp
  growth: -0.0485 ± 0.067
14.9 µg/ml, genetic background: wild type, reporter plasmid: robp
  growth: 0.0185 ± 0.014
14.9 µg/ml, genetic background: wild type, reporter plasmid: soxSp
  growth: 0.254 ± 0.079
14.9 µg/ml, genetic background: wild type, reporter plasmid: tolCp
  growth: 1.47 ± 0.18
14.9 µg/ml, genetic background: ΔmarA, reporter plasmid: EVC
  growth: -0.178 ± 0.3
14.9 µg/ml, genetic background: ΔmarA, reporter plasmid: acrABp
  growth: -0.0306 ± 0.039
14.9 µg/ml, genetic background: ΔmarA, reporter plasmid: marRABp
  growth: 0.00624 ± 0.053
14.9 µg/ml, genetic background: ΔmarA, reporter plasmid: micFp
  growth: -0.0306 ± 0.0037
14.9 µg/ml, genetic background: ΔmarA, reporter plasmid: ompFp
  growth: -0.0883 ± 0.03
14.9 µg/ml, genetic background: ΔmarA, reporter plasmid: robp
  growth: 0.149 ± 0.4
14.9 µg/ml, genetic background: ΔmarA, reporter plasmid: soxSp
  growth: 0.606 ± 0.98
14.9 µg/ml, genetic background: ΔmarA, reporter plasmid: tolCp
  growth: 0.132 ± 0.39
14.9 µg/ml, genetic background: Δrob, reporter plasmid: EVC
  growth: -0.308 ± 0.47
14.9 µg/ml, genetic background: Δrob, reporter plasmid: acrABp
  growth: 0.00388 ± 0.041
14.9 µg/ml, genetic background: Δrob, reporter plasmid: marRABp
  growth: -0.0395 ± 0.026
14.9 µg/ml, genetic background: Δrob, reporter plasmid: micFp
  growth: -0.087 ± 0.034
14.9 µg/ml, genetic background: Δrob, reporter plasmid: ompFp
  growth: -0.0754 ± 0.031
14.9 µg/ml, genetic background: Δrob, reporter plasmid: robp
  growth: -0.0981 ± 0.067
14.9 µg/ml, genetic background: Δrob, reporter plasmid: soxSp
  growth: -0.102 ± 0.074
14.9 µg/ml, genetic background: Δrob, reporter plasmid: tolCp
  growth: 0.131 ± 0.38
14.9 µg/ml, genetic background: ΔsoxS, reporter plasmid: EVC
  growth: 1.84 ± 1.1
14.9 µg/ml, genetic background: ΔsoxS, reporter plasmid: acrABp
  growth: 0.00694 ± 0.057
14.9 µg/ml, genetic background: ΔsoxS, reporter plasmid: marRABp
  growth: 0.0286 ± 0.0055
14.9 µg/ml, genetic background: ΔsoxS, reporter plasmid: micFp
  growth: -0.0384 ± 0.035
14.9 µg/ml, genetic background: ΔsoxS, reporter plasmid: ompFp
  growth: -0.018 ± 0.045
14.9 µg/ml, genetic background: ΔsoxS, reporter plasmid: robp
  growth: -0.0596 ± 0.0067
14.9 µg/ml, genetic background: ΔsoxS, reporter plasmid: soxSp
  growth: 0.0227 ± 0.014
14.9 µg/ml, genetic background: ΔsoxS, reporter plasmid: tolCp
  growth: 1.4 ± 1.2
